Source: US20210085703A1, “Compositions and Methods for Preventing or Treating Nephrolithiasis” (SP Nutraceuticals, Inc., priority 2017, published 2021)

Assay: Crystallization of oxalate crystals in the presence and absence of arbutin (confocal birefringence, AFM)
Assay type: physicochemical
Conditions: crystals formed in the presence of 1 mM arbutin

OCC1OC(Oc2ccc(O)cc2)C(O)C(O)C1O [arbutin, hydroquinone β-D-glucopyranoside]
crystal surface by confocal birefringence microscopy: crystal surface aberrations
crystal size by AFM volumetric analysis (versus non-treated crystals): significantly smaller than non-treated crystals
roughness index of crystal surface by AFM (versus untreated crystal): higher than in the untreated crystal
